# Structures can show the parent of a compound that is named as a salt. Some of the results follow. The numbers are fractions of the control, whatever unit the source prints. Most values lie at the level of the controls, where differences are scatter.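 A lentiviral reporter stably expressed in MIN6 mouse insulinoma beta cells uses Pdx1 and Ins1 promoters to drive separate nucleus-targeted fluorescent proteins; automated imaging with Hoechst nuclear stain counted cells. Possible hits were drugs shifting Ins1 promoter signal more than two median absolute deviations from DMSO controls, with Pdx1 activity roughly normal.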
# System: MIN6
# Test: % Pdx1+ Ins1-low (RFP-only, immature) cells relative to DMSO control (fold of DMSO control); higher = more immature Pdx1+/Ins1-low cells
# Conditions: 8.5 µM; 48 h; glucose 5 mM
row,SMILES,% Pdx1+ Ins1-low
1,NNCCc1ccccc1 [Phenelzine sulfate],1.1
2,C=C1CC[C@H](O)C/C1=C/C=C1\CCC[C@]2(C)[C@@H]([C@H](C)CCCC(C)C)CC[C@@H]12 [Cholecalciferol],0.985
3,CC(Cc1cccc(C(F)(F)F)c1)NCCOC(=O)c1ccccc1 (stereo not drawn) [Benfluorex hydrochloride],0.779
4,CC(=O)S[C@@H]1CC2=CC(=O)CC[C@]2(C)[C@H]2CC[C@@]3(C)[C@@H](CC[C@@]34CCC(=O)O4)[C@H]12 [Spironolactone],0.917
5,N=C(N)NC(=N)NCCc1ccccc1 [Phenformin hydrochloride],1.17
6,CC(C)(C)NC[C@@H](O)COc1cccc2c1CCCC2=O [(+) -Levobunolol hydrochloride],1.35
7,CN1CCC(=C2c3ccccc3C=Cc3ccccc32)CC1 [Cyproheptadine hydrochloride],1.48
8,OCCN1CCN(CC/C=C2/c3ccccc3Sc3ccc(C(F)(F)F)cc32)CC1 [Flupentixol dihydrochloride cis-(Z)],0.718
9,CC[N+](C)(C)c1cccc(O)c1 [Edrophonium chloride],1.01
10,CCCOc1cc(N)ccc1C(=O)OCCN(CC)CC [Propoxycaine hydrochloride],0.986
11,CCN[C@H]1CN(CCCOC)S(=O)(=O)c2sc(S(N)(=O)=O)cc21 [Brinzolamide],1.07
12,Cc1ncc(C[n+]2csc(CCO)c2C)c(N)n1 [Thiamine hydrochloride],0.76
13,C=CC(N)CCC(=O)O (stereo not drawn) [Vigabatrin],1.48
14,NS(=O)(=O)c1cc(C2(O)NC(=O)c3ccccc32)ccc1Cl (stereo not drawn) [Chlorthalidone],1.04
15,COc1ccc2c3c([nH]c2c1)[C@H]1C[C@H]2[C@H](C[C@@H](O)[C@H](OC)[C@H]2C(=O)O)CN1CC3 [Reserpinic acid hydrochloride],0.922
16,CC(=O)OCC(=O)[C@@]1(O)CC[C@H]2[C@@H]3CCC4=CC(=O)CC[C@]4(C)[C@@]3(F)[C@@H](O)C[C@@]21C [Fludrocortisone acetate],1.91
17,CC[N+](C)(CC)CCOC(=O)C1c2ccccc2Oc2ccccc21 [Methantheline bromide],1.02
18,COC(=O)Nc1nc2cc(C(=O)c3cccs3)ccc2[nH]1 [Nocodazole],0.707
19,Cc1ccc(C(=O)c2ccc(CC(=O)O)n2C)cc1 [Tolmetin sodium salt dihydrate],0.606
20,CCCCN(CCCC)CCCOC(=O)c1ccc(N)cc1 [Butacaine],1.02
21,CN(C)CCCN1c2ccccc2Sc2ccc(C(F)(F)F)cc21 [Triflupromazine hydrochloride],0.782
22,COc1ccc([C@@H]2CC(=O)c3c(O)cc(O)cc3O2)cc1O [Hesperetin],1.03
23,CC(N/C(=N\C#N)Nc1ccncc1)C(C)(C)C (stereo not drawn) [Pinacidil],0.996
24,CCN(CC)CCOC(=O)C1(C2CCCCC2)CCCCC1 [Dicyclomine hydrochloride],1.04
25,Cc1[nH]ccc2c1[nH]c1cc(=O)ccc12 [Harmol hydrochloride monohydrate],1.03

row,SMILES,% Pdx1+ Ins1-low
1,COc1cc(C(=O)OCCCN2CCCN(CCCOC(=O)c3cc(OC)c(OC)c(OC)c3)CC2)cc(OC)c1OC [Dilazep dihydrochloride],1.29
2,O=C(O)Cc1ccc(-c2ccccc2)cc1 [Felbinac],0.67
3,C[C@@H]1C[C@H]2[C@@H]3C[C@H](F)C4=CC(=O)C=C[C@]4(C)[C@@]3(F)[C@@H](O)C[C@]2(C)[C@@]1(O)C(=O)CO [Flumethasone],1.51
4,CN1CCN(C2=Nc3ccccc3Oc3ccc(Cl)cc32)CC1 [Loxapine succinate],0.674
5,COc1c2occc2cc2ccc(=O)oc12 [Methoxy-8-psoralen],0.622
6,NCc1ccccc1CC(=O)N[C@@H]1C(=O)N2C(C(=O)O)=C(CSc3nnnn3CC(=O)O)CS[C@H]12 [Ceforanide],0.632
7,N=C(NCCCCCCNC(=N)NC(=N)Nc1ccc(Cl)cc1)NC(=N)Nc1ccc(Cl)cc1 [Chlorhexidine],0.755
8,N#Cc1ccc(C(c2ccc(C#N)cc2)n2cncn2)cc1 [Letrozole],1.33
9,Clc1ccc(CCC(Cn2ccnc2)Sc2c(Cl)cccc2Cl)cc1 (stereo not drawn) [Butoconazole nitrate],1.2
10,C[N+]1(C)CCC(OC(=O)C(O)(c2ccccc2)C2CCCC2)C1 (stereo not drawn) [Glycopyrrolate],0.869
11,CN(C)CCCOc1nn(Cc2ccccc2)c2ccccc12 [Benzydamine hydrochloride],0.912
12,CC(=O)OCC(=O)[C@@]1(O)CC[C@H]2[C@@H]3CCC4=CC(=O)C=C[C@]4(C)[C@@]3(F)[C@@H](O)C[C@@]21C [Isoflupredone acetate],0.887
13,COc1cc2nc(N3CCN(C(=O)C4CCCO4)CC3)nc(N)c2cc1OC (stereo not drawn) [Terazosin hydrochloride],1.22
14,Nc1ccc(S(=O)(=O)Nc2ccc(Cl)nn2)cc1 [Sulfachloropyridazine],1.02
15,C[n+]1cccc(C(=O)[O-])c1 [Trigonelline],1.12
16,CNNCc1ccc(C(=O)NC(C)C)cc1 [Procarbazine hydrochloride],0.845
17,CN(C)CCC=C1c2ccccc2C=Cc2ccccc21 [Cyclobenzaprine hydrochloride],1.04
18,NS(=O)(=O)c1cc2c(cc1Cl)NCNS2(=O)=O [Hydrochlorothiazide],0.692
19,C[N+]1(C)CCC(=C(c2ccccc2)c2ccccc2)CC1 [Diphemanil methylsulfate],0.635
20,C[C@@H]1C(=O)O[C@H]2C[C@@]34[C@H]5C[C@@H](C(C)(C)C)[C@]36[C@@H](OC(=O)[C@@H]6O)O[C@@]4(C(=O)O5)[C@]21O [Ginkgolide A],1.3
21,CC(=O)Oc1cc(C(C)C)c(OCCN(C)C)cc1C [Moxisylyte hydrochoride],0.664
22,CC[C@]12CCCN3CCc4c(n(c5ccccc45)C(=O)C1)[C@@H]32 [Eburnamonine (-)],0.598
23,CNC(=C[N+](=O)[O-])NCCSCc1csc(CN(C)C)n1 [Nizatidine],1.15
24,CS(=O)(=O)Nc1ccc([N+](=O)[O-])cc1Oc1ccccc1 [Nimesulide],0.955
25,COc1cc(C)nc(-n2nc(C)cc2OC)n1 [Epirizole],0.708

row,SMILES,% Pdx1+ Ins1-low
1,CCn1cc(C(=O)O)c(=O)c2cc(F)c(N3CCNC(C)C3)c(F)c21 (stereo not drawn) [Lomefloxacin hydrochloride],1.13
2,C[C@]12C=CC(=O)C=C1CC[C@@H]1[C@@H]2C(=O)C[C@@]2(C)[C@H]1CC[C@]2(O)C(=O)CO [Prednisone],1.24
3,CC(C)(O/N=C(\C(=O)N[C@@H]1C(=O)N2C(C(=O)[O-])=C(C[n+]3ccccc3)CS[C@H]12)c1csc(N)n1)C(=O)O [Ceftazidime pentahydrate],0.954
4,Cc1ccc(/C(=C\CN2CCCC2)c2ccccn2)cc1 [Triprolidine hydrochloride],0.653
5,C[C@H]1[C@H](NC(=O)/C(=N\OC(C)(C)C(=O)O)c2csc(N)n2)C(=O)N1S(=O)(=O)O [Aztreonam],0.794
6,CNCCC=C1c2ccccc2CCc2ccccc21 [Nortriptyline hydrochloride],0.681
7,CN(N=O)C(=O)N[C@@H](C=O)[C@@H](O)[C@H](O)[C@H](O)CO [Streptozotocin],0.744
8,CCc1cc(C(N)=S)ccn1 [Ethionamide],1.24
9,CCC(=O)[C@@]1(C)[C@H](C)C[C@H]2[C@@H]3CCC4=CC(=O)C=C[C@]4(C)[C@H]3[C@@H](O)C[C@@]21C [Rimexolone],1.04
10,"O=C1C=CC(=O)c2c1ccc1c2ccc2ccccc21 [Chrysene-1,4-quinone]",1.13
11,O=C(N/N=C/c1ccc([N+](=O)[O-])o1)c1ccc(O)cc1 [Nifuroxazide],1.19
12,CN1CCN(C(c2ccccc2)c2ccc(Cl)cc2)CC1 (stereo not drawn) [(1-[(4-Chlorophenyl)phenyl-methyl]-4-methylpiperazine)],0.675
13,CNC(=C[N+](=O)[O-])NCCSCc1ccc(CN(C)C)o1 [Ranitidine hydrochloride],0.783
14,COC(=O)[C@H]1[C@H]2C[C@@H]3c4[nH]c5cc(OC)ccc5c4CCN3C[C@H]2C[C@@H](OC(=O)c2cc(OC)c(OC)c(OC)c2)[C@@H]1OC [Reserpine],1.08
15,COc1cc2c(cc1OC)-c1cc3ccc(OC)c(OC)c3c[n+]1CC2 [Palmatine chloride],0.924
16,CCOC(=O)Nc1ccc2c(c1)N(C(=O)CCN1CCOCC1)c1ccccc1S2 [Moricizine hydrochloride],0.829
17,CC(=O)N1CCN(c2ccc(OCC3COC(Cn4ccnc4)(c4ccc(Cl)cc4Cl)O3)cc2)CC1 (stereo not drawn) [Ketoconazole],1.03
18,CC(C)NCC(O)c1ccc(NS(C)(=O)=O)cc1 (stereo not drawn) [Sotalol hydrochloride],1.35
19,C#C[C@]1(O)CC[C@H]2[C@@H]3CCc4cc(OC)ccc4[C@H]3CC[C@@]21C [Ethynylestradiol 3-methyl ether],1
20,CCCCCCCCCCCCCCCC[N+](C)(C)CCN(Cc1ccc(OC)cc1)c1ncccn1 [Thonzonium bromide],1.11
21,CCN(CC)CCCC(C)Nc1c2ccc(Cl)cc2nc2ccc(OC)cc12 (stereo not drawn) [Quinacrine dihydrochloride dihydrate],1.06
22,CO[C@@]1(NC(=O)C2SC(=C(C(N)=O)C(=O)O)S2)C(=O)N2C(C(=O)O)=C(CSc3nnnn3C)CS[C@@H]21 (stereo partly drawn) [Cefotetan],0.667
23,CN(C)CCCN1c2ccccc2CCc2ccc(Cl)cc21 [Clomipramine hydrochloride],0.927

# In a second layout: entries from further up.
row | SMILES | % Pdx1+ Ins1-low
11 | O=C(N/N=C/c1ccc([N+](=O)[O-])o1)c1ccc(O)cc1 [Nifuroxazide] | 1.19
12 | CN1CCN(C(c2ccccc2)c2ccc(Cl)cc2)CC1 (stereo not drawn) [(1-[(4-Chlorophenyl)phenyl-methyl]-4-methylpiperazine)] | 0.675
13 | CNC(=C[N+](=O)[O-])NCCSCc1ccc(CN(C)C)o1 [Ranitidine hydrochloride] | 0.783
14 | COC(=O)[C@H]1[C@H]2C[C@@H]3c4[nH]c5cc(OC)ccc5c4CCN3C[C@H]2C[C@@H](OC(=O)c2cc(OC)c(OC)c(OC)c2)[C@@H]1OC [Reserpine] | 1.08
15 | COc1cc2c(cc1OC)-c1cc3ccc(OC)c(OC)c3c[n+]1CC2 [Palmatine chloride] | 0.924
16 | CCOC(=O)Nc1ccc2c(c1)N(C(=O)CCN1CCOCC1)c1ccccc1S2 [Moricizine hydrochloride] | 0.829
17 | CC(=O)N1CCN(c2ccc(OCC3COC(Cn4ccnc4)(c4ccc(Cl)cc4Cl)O3)cc2)CC1 (stereo not drawn) [Ketoconazole] | 1.03
18 | CC(C)NCC(O)c1ccc(NS(C)(=O)=O)cc1 (stereo not drawn) [Sotalol hydrochloride] | 1.35
19 | C#C[C@]1(O)CC[C@H]2[C@@H]3CCc4cc(OC)ccc4[C@H]3CC[C@@]21C [Ethynylestradiol 3-methyl ether] | 1
20 | CCCCCCCCCCCCCCCC[N+](C)(C)CCN(Cc1ccc(OC)cc1)c1ncccn1 [Thonzonium bromide] | 1.11
21 | CCN(CC)CCCC(C)Nc1c2ccc(Cl)cc2nc2ccc(OC)cc12 (stereo not drawn) [Quinacrine dihydrochloride dihydrate] | 1.06
22 | CO[C@@]1(NC(=O)C2SC(=C(C(N)=O)C(=O)O)S2)C(=O)N2C(C(=O)O)=C(CSc3nnnn3C)CS[C@@H]21 (stereo partly drawn) [Cefotetan] | 0.667
23 | CN(C)CCCN1c2ccccc2CCc2ccc(Cl)cc21 [Clomipramine hydrochloride] | 0.927
